Test results published in paper PMC4686857.

Protein sequences, listed by entry. Tags and fused reporters are not part of them. Lines headed by an entry give the natural chain unless they say otherwise; changes in a name come on top. Chains listed by the source or under a name are the forms on record and can include a tag or linker.
UniProt P21333: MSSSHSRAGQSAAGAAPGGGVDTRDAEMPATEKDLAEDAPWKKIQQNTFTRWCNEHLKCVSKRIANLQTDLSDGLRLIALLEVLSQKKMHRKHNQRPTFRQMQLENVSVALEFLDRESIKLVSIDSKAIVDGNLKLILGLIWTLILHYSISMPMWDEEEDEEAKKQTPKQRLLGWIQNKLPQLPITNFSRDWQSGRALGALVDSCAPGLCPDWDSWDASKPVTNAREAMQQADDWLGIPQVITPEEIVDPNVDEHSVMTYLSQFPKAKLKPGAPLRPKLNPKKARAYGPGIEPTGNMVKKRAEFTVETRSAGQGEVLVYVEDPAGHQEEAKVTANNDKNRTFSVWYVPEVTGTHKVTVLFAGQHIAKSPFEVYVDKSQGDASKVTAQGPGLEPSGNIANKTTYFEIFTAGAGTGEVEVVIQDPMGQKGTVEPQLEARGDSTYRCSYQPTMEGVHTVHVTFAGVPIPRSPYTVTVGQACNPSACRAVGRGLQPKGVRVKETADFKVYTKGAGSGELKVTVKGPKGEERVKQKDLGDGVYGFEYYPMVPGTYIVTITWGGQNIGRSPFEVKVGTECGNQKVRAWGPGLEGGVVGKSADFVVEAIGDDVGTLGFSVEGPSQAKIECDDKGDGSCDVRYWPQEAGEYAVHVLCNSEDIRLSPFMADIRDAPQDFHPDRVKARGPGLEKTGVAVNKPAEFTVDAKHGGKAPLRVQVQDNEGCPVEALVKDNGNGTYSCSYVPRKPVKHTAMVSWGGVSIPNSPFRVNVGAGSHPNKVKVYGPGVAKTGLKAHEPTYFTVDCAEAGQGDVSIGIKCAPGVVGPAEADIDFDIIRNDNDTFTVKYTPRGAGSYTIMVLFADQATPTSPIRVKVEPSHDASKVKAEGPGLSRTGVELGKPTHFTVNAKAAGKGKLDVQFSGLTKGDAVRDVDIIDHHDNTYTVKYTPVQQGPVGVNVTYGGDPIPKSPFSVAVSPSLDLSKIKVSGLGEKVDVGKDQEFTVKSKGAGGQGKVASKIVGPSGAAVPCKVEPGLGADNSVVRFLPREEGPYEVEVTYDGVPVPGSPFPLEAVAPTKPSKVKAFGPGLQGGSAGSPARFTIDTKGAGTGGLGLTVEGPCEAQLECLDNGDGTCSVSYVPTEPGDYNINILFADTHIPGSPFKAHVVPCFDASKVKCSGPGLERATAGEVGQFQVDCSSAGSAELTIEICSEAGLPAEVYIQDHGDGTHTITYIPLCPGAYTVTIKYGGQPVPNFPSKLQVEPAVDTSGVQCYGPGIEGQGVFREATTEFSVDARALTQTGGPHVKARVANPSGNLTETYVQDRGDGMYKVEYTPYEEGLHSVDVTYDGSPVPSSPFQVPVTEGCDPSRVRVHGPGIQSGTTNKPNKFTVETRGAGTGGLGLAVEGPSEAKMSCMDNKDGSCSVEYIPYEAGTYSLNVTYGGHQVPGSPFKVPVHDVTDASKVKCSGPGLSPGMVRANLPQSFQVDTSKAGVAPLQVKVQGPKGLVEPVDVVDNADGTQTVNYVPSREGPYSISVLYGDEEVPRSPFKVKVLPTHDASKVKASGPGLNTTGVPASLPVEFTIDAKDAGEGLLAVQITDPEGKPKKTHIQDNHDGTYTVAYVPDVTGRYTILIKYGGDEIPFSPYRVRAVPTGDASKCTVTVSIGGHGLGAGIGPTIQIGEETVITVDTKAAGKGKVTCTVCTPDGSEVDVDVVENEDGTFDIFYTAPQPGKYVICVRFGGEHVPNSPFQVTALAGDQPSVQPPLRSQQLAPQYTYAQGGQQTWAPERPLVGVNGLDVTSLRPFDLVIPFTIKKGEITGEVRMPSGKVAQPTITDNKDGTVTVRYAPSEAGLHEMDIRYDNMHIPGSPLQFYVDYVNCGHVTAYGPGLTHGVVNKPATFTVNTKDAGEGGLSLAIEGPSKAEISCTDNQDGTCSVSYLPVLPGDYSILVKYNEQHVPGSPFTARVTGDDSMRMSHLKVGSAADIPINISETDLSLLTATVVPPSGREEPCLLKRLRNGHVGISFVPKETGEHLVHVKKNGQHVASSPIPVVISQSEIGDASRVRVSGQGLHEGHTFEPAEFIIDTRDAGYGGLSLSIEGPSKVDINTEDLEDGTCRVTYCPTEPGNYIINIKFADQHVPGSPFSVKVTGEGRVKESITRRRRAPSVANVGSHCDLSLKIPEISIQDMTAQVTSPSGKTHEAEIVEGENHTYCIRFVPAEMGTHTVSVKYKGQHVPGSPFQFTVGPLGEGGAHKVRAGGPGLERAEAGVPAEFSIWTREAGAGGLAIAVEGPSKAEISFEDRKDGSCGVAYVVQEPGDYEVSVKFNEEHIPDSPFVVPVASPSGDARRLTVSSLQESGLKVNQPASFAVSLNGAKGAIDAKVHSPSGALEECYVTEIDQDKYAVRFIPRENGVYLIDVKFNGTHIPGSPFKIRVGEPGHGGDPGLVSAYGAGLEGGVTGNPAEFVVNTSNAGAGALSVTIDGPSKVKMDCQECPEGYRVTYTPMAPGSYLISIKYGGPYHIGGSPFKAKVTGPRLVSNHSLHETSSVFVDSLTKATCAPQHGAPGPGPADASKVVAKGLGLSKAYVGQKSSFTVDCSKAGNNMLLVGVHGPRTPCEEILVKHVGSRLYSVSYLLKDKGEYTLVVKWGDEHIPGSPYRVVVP
UniProt P62834: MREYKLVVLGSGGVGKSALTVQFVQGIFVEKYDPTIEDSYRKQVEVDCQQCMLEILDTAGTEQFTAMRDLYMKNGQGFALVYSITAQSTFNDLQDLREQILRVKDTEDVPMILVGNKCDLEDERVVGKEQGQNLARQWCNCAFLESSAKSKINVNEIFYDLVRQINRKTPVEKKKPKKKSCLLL
T7-tagged Rap1V12 (constitutively active mutant of human Rap1a) (P62834, form named): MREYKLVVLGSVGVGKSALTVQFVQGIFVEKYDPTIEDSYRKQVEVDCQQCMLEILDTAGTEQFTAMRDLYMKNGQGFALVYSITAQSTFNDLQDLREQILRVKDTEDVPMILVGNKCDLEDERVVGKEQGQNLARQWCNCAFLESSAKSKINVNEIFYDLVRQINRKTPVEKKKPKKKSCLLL

Molecular target: Halo-tagged FLNa lacking repeat 3 (Δ3) (UniProt P21333)
Assay: pull-down; lysates of COS cells transfected with Halo-FLNa (wild type or deletion mutants) and T7-Rap1V12 or N17, in one panel also αL and mRFP-β; precipitated with HaloLink resin; immunoblotted with anti-T7, Halo, mRFP, αL

T7-tagged Rap1V12 (constitutively active mutant of human Rap1a) (from UniProt P62834 1-184)
binding: no binding

Results are given in words; binding and its absence hold for the method and conditions named. In cells and extracts the contact can be indirect.
